This is an account of results in the supplement of paper PMC10849652.

Chains of the proteins cited; added tags and fusions are not shown. Lines headed by an entry give the natural chain unless they say otherwise; changes in a name come on top.
UniProt Q9NVN3: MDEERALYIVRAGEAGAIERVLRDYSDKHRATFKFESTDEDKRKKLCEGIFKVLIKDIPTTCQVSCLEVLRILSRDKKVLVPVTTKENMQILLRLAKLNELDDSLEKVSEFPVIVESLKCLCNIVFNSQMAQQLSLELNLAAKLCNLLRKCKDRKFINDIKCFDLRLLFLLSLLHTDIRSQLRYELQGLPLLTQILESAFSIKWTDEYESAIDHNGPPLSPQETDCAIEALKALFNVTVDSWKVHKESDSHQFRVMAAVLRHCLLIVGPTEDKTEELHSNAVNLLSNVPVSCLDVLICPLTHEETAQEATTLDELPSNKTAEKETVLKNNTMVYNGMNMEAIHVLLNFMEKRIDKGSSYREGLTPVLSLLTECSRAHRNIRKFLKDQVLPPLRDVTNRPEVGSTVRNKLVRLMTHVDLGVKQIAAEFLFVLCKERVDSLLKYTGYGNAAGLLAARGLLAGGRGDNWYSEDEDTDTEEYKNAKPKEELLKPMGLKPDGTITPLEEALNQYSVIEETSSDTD
UniProt Q8IUF8: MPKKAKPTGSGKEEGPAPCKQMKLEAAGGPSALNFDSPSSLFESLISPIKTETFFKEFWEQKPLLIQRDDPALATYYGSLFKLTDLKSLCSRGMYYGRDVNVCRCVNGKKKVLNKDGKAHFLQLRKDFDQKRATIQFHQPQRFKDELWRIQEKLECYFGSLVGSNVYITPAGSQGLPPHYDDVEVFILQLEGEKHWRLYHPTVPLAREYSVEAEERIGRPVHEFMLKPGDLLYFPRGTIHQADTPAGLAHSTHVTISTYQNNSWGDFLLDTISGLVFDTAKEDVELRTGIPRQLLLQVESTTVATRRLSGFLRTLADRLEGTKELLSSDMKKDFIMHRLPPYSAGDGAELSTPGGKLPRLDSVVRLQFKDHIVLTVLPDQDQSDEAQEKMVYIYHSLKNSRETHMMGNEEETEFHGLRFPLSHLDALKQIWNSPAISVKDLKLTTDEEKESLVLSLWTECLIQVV
UniProt Q5XPI4: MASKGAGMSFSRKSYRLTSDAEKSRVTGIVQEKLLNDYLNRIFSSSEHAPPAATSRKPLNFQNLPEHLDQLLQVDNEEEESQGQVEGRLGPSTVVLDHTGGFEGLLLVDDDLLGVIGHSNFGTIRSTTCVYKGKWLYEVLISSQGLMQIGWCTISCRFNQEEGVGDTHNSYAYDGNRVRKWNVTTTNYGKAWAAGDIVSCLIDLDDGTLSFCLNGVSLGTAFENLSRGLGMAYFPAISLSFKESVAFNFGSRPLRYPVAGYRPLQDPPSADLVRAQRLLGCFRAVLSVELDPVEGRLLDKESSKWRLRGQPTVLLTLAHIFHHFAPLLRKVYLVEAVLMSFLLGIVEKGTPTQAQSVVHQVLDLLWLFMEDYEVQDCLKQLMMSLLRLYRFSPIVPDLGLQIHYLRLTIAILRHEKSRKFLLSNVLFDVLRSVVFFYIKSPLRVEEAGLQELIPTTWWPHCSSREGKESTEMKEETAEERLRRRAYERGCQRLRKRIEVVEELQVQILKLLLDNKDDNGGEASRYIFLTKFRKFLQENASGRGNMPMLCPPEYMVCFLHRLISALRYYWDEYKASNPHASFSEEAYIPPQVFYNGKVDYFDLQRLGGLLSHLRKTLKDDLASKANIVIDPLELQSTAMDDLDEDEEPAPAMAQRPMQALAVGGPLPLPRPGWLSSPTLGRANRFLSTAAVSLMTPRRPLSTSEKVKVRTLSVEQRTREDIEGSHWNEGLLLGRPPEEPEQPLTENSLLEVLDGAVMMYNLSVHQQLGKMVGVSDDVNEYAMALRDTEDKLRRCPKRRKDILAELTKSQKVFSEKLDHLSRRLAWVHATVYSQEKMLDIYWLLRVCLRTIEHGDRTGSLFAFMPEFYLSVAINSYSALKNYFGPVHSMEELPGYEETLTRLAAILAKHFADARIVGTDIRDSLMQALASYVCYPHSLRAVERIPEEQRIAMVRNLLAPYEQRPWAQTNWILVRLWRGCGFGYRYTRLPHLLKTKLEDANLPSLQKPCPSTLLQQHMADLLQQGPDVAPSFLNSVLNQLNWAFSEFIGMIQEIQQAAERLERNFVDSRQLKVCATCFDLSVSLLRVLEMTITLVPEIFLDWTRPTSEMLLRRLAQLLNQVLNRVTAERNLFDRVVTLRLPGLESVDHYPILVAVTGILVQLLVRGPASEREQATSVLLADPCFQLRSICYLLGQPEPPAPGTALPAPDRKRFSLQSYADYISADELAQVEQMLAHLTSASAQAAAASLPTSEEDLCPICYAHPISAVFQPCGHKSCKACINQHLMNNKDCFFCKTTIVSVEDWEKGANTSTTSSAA
UniProt Q8TDP1: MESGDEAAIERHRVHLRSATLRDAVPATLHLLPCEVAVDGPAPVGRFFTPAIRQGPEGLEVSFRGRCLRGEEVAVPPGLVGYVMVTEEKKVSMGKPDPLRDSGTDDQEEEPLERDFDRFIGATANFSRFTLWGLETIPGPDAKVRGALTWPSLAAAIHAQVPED
UniProt Q9P0P0: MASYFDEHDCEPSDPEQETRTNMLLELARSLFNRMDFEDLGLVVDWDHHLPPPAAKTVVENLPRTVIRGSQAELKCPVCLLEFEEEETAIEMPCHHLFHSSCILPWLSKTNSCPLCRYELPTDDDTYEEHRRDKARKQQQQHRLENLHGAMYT
UniProt Q96DB5: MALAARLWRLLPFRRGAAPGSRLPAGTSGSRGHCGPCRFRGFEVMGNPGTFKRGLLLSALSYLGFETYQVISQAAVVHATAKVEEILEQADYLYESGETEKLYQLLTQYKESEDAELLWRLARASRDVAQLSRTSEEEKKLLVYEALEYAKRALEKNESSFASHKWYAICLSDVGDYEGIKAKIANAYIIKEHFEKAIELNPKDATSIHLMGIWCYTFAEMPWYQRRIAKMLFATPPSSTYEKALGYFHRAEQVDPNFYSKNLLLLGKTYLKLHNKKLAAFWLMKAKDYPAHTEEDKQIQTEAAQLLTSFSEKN
UniProt Q8IXI1, whole entry, looked up: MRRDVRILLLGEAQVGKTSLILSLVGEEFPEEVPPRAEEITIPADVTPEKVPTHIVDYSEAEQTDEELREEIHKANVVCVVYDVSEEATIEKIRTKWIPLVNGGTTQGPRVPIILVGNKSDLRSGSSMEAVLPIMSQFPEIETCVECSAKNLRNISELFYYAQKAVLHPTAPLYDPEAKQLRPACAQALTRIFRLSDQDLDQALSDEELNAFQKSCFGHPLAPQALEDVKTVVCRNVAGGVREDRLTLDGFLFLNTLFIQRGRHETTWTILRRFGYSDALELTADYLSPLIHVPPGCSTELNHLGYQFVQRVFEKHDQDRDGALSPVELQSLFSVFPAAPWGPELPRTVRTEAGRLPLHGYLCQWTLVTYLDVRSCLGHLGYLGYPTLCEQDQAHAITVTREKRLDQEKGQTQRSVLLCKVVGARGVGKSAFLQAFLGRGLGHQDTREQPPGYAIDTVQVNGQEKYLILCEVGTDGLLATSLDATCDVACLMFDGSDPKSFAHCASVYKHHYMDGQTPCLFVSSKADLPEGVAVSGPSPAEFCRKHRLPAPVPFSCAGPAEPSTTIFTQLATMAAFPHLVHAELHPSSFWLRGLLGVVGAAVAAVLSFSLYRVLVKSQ
UniProt Q5TBB1: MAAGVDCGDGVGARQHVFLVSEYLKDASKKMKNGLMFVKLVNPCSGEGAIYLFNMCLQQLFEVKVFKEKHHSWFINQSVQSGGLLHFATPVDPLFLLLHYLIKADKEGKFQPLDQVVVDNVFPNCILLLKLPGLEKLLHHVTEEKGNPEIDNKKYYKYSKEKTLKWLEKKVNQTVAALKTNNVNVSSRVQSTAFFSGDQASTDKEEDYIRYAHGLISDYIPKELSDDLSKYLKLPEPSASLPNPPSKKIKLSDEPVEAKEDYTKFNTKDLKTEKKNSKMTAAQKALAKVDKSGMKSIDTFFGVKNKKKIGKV
UniProt P35244: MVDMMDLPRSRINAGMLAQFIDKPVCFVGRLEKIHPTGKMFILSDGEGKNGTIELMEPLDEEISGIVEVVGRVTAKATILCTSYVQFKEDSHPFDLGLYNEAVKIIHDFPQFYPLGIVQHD
UniProt Q96DM3: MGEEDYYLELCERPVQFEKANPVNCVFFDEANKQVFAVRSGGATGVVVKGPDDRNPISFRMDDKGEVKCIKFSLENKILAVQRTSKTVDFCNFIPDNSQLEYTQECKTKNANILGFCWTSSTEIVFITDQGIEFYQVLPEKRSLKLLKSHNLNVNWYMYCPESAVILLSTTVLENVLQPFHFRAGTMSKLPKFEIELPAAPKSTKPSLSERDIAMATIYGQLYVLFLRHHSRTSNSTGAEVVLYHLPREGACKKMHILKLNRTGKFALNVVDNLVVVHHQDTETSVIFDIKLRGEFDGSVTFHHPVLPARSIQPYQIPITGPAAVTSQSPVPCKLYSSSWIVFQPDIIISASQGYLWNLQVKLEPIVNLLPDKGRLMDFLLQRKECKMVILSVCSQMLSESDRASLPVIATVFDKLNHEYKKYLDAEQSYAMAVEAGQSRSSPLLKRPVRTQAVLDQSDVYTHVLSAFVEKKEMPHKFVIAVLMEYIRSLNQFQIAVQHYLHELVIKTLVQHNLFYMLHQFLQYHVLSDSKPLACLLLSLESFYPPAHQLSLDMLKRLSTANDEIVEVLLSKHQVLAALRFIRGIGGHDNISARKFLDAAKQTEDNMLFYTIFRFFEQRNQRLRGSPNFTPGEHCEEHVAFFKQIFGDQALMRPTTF

The list shows a part of the results.

Compound in the test: CNC(=O)C1=CC=CC=C1NC2=NC(=NC=C2Cl)NC3=C(C=C(C=C3)N4CCOCC4)OC
Briefly: log2 fold change, soluble protein after heating vs DMSO (PISA); higher = thermal stabilisation; K562 lysate, 10 uM; active = over 0.2 and 3.5 SD of the protein, either way, in both replicates (recomputed). The method in brief: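 Pellets of K562 cells were dounce-homogenised in PBS pH 7.4 with 1 mM MgCl2, and the crude extract was held at 1 mg/mL protein for a 30 min treatment with 10 μM compound. Aliquots were heated for 3 min over 48°C-58°C and pooled before NP-40 was added to 0.5% at 4°C. The supernatant from 21,000xg for 90 min was quantified by TMTpro 16plex LC-MS/MS with channel sums equalised. Values are reported from duplicates as log-two fold change in thermal stability relative to solvent controls.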
On to RIC8B isoform 1 (UniProt Q9NVN3), for which the log2 fold change was inactive: -0.011.
The result for RPL32 (UniProt P62910) reads inactive: 0.009.
Then RIOX2 (UniProt Q8IUF8), with inactive: 0.01; and RNF123 (UniProt Q5XPI4), with inactive: -0.002.
RPL30 (UniProt P62888): the log2 fold change was inactive: -0.007.
The result for RNASEH2C (UniProt Q8TDP1) reads inactive: -0.009; that for RNF181 (UniProt Q9P0P0), inactive: 0.037.
Then RMDN1 (UniProt Q96DB5), with inactive: -0.001; and RHOT2 (UniProt Q8IXI1), with inactive: -0.04.
Then RNASEH2B (UniProt Q5TBB1), with inactive: -0.003.
For RPA3 (UniProt P35244), the log2 fold change was inactive: 0.02.
Take RMC1 (UniProt Q96DM3): the log2 fold change is inactive: 0.019.
Turning to RNF213, A0A0A0MTC1, the log2 fold change was inactive: 0.023.
